Data reported in US20110065756A1, “METHODS AND COMPOSITIONS FOR TREATMENT OF OBESITY-RELATED DISEASES” (priority 2009, published 2011).
At least one structure is not confirmed: it was looked up by name or label, or the drawing left a doubt.

Assays:
[1] = system: sEH expression in mature 3T3-L1 adipocytes; test: Troglitazone treatment of differentiated 3T3-L1 adipocytes: sEH mRNA (RT-QPCR) and protein (western blot); assay type: cell-based, mouse
[2] = Rosiglitazone treatment of diet-induced obese mice: body weight, fasting plasma glucose and insulin, IPGTT; assay type: in vivo, C57BL/6J mice; settings: vs vehicle
sEH = sEH mRNA, activity and protein in tissues of obese mice treated with rosiglitazone; assay type: in vivo, C57BL/6J mice; settings: 10 mg/kg/day, vs vehicle
[3] = RECORD, at 5 years, vs active control group; cited from earlier work
[4] = obese C57BL/6J mice, 10 mg/kg/day by gavage

Structure (SMILES) | sEH mRNA levels, concentration dependence ([1]; 48 hrs incubation, RT-QPCR) | sEH protein levels, concentration dependence ([1]; 48 hrs incubation, western blot) | sEH mRNA levels, time course ([1]; troglitazone 10 μmol/L, RT-QPCR) | sEH protein levels, time course ([1]; troglitazone 10 μmol/L, western blot) | insulin levels during IPGTT ([2]; day 10, ANOVA) | plasma glucose levels after 16 hour fast ([2]; day 10, before IPGTT) | plasma insulin levels after 16 hour fast ([2]; day 10, before IPGTT) | overall plasma glucose levels during IPGTT ([2]; day 10, two-way ANOVA) | insulin sensitivity [2, 4] | plasma glucose levels after 6 hour fast [2, 4] | plasma insulin levels after 6 hour fast [2, 4] | kidney sEH mRNA levels (sEH) | liver sEH mRNA levels (sEH) | sEH activity in epididymal fat pad (sEH) | sEH expression (mRNA) in subcutaneous fat (sEH) | sEH mRNA levels in epididymal fat pad (sEH) | sEH protein levels in epididymal fat pad (immunohistochemistry) (sEH) | mean HbA1c [3]
Cc1c(C)c2c(c(C)c1O)CCC(C)(COc1ccc(CC3SC(=O)NC3=O)cc1)O2 (stereo not drawn) [troglitazone] | concentration-dependent effect, increasing | concentration-dependent effect, increasing | time-dependent increase | time-dependent increase | – | – | – | – | – | – | – | – | – | – | – | – | – | –
CN(CCOc1ccc(CC2SC(=O)NC2=O)cc1)c1ccccn1 (stereo not drawn) [rosiglitazone] | – | – | – | – | did not reveal a difference | lower | reduced | no difference was observed | improved insulin sensitivity | reduced | reduced | did not influence | did not influence | significantly increased | increased | significantly increased | increased | lower
